Common to all, as to assay: proximity ligation; Duolink mouse/rabbit kit on HuH7 cells co-transfected with two tagged constructs (500 ng each), 24 h post-transfection; antibodies against the epitope tags (Flag, myc, HA)
For assay [1], the target named is T1, wild-type ferroportin with Flag tag (Flag-FPN) (human) (UniProt Q9NP59).
T1 sequence: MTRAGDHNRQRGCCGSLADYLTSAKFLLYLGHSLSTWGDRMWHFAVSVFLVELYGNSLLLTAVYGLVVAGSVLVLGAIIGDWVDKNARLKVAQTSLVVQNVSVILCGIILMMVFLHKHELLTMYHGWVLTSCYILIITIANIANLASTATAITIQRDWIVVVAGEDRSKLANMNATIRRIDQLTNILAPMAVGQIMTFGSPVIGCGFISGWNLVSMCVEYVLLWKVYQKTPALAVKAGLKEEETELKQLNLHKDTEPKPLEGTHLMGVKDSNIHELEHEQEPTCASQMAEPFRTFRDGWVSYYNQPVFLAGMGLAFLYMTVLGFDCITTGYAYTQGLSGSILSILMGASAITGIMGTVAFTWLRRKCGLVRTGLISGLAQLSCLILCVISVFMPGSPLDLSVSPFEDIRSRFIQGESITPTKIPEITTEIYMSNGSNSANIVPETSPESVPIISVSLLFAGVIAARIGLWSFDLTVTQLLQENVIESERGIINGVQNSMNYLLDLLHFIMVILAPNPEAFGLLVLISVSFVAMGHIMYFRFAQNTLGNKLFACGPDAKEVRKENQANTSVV

The target of assay [2] is T2, wild-type ferroportin with HA tag (HA-FPN) (human) (UniProt Q9NP59).
T2 sequence: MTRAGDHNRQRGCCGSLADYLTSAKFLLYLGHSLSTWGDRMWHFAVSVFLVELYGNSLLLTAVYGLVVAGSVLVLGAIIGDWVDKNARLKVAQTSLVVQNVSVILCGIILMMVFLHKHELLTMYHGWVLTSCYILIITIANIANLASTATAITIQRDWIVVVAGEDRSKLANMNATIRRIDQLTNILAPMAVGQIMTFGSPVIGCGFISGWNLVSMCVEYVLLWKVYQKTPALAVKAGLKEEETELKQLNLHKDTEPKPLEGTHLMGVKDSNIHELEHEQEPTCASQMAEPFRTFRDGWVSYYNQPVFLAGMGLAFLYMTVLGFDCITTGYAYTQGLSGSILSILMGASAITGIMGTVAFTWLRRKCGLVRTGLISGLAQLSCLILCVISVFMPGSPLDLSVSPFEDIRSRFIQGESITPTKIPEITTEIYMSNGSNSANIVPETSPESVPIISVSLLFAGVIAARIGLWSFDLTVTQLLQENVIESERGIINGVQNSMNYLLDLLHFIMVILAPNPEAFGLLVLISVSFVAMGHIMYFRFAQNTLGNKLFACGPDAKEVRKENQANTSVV

Assay [3] has as its target T3, wild-type ferroportin with Flag tag (Flag-FPN) (human), Q9NP59.
T3 chain: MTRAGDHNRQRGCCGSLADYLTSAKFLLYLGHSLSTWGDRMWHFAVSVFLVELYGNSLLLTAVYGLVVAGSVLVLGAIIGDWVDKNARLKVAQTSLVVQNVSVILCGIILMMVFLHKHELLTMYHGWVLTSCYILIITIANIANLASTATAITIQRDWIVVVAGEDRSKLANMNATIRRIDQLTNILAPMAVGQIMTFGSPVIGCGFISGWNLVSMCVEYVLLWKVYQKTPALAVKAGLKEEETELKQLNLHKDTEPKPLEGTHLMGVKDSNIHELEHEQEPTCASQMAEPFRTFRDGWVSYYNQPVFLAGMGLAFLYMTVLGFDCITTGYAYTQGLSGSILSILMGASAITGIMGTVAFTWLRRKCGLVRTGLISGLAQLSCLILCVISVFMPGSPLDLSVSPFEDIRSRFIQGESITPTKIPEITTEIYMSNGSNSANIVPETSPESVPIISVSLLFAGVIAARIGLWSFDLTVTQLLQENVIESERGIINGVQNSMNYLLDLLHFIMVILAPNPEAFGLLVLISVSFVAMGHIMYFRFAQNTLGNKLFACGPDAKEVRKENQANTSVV
To be noted: remark: other sources report otherwise.

Assay [4] has as its target T4, wild-type ferroportin with HA tag (HA-FPN) (human), Q9NP59.
T4 chain: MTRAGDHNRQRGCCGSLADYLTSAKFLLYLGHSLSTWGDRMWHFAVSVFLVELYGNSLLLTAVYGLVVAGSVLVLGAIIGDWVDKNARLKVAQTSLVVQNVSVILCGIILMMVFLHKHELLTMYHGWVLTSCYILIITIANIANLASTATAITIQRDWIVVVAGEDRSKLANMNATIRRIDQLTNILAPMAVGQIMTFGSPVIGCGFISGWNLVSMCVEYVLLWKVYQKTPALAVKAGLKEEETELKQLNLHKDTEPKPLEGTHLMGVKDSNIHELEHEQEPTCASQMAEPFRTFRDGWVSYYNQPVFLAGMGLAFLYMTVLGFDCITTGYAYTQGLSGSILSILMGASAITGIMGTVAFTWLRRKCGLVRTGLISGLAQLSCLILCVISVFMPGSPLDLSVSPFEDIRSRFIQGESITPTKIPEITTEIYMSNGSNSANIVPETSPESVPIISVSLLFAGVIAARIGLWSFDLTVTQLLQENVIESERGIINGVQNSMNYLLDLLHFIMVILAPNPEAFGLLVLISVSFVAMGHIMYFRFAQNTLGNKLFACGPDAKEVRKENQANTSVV
To be noted: remark: other sources report otherwise.

Results are given in words; binding and its absence hold for the method and conditions named. Binding seen in cells or lysates may run through a third protein. Some entries that bind do so weakly or less than the wild type. Where a sequence is shown, tags or fusion partners need not be part of it.

B1: p.V162del ferroportin mutant with C-terminal myc tag (C-myc-FPN-V162del) (protein, UniProt Q9NP59 1-571)
chain: MTRAGDHNRQRGCCGSLADYLTSAKFLLYLGHSLSTWGDRMWHFAVSVFLVELYGNSLLLTAVYGLVVAGSVLVLGAIIGDWVDKNARLKVAQTSLVVQNVSVILCGIILMMVFLHKHELLTMYHGWVLTSCYILIITIANIANLASTATAITIQRDWIVVAGEDRSKLANMNATIRRIDQLTNILAPMAVGQIMTFGSPVIGCGFISGWNLVSMCVEYVLLWKVYQKTPALAVKAGLKEEETELKQLNLHKDTEPKPLEGTHLMGVKDSNIHELEHEQEPTCASQMAEPFRTFRDGWVSYYNQPVFLAGMGLAFLYMTVLGFDCITTGYAYTQGLSGSILSILMGASAITGIMGTVAFTWLRRKCGLVRTGLISGLAQLSCLILCVISVFMPGSPLDLSVSPFEDIRSRFIQGESITPTKIPEITTEIYMSNGSNSANIVPETSPESVPIISVSLLFAGVIAARIGLWSFDLTVTQLLQENVIESERGIINGVQNSMNYLLDLLHFIMVILAPNPEAFGLLVLISVSFVAMGHIMYFRFAQNTLGNKLFACGPDAKEVRKENQANTSVV
As to B1, the binding result in assay [1] and in assay [2] was “binds” in each case.

B2: wild-type ferroportin with N-terminal myc tag (N-myc-FPN), Q9NP59 1-571 (protein)
chain: MTRAGDHNRQRGCCGSLADYLTSAKFLLYLGHSLSTWGDRMWHFAVSVFLVELYGNSLLLTAVYGLVVAGSVLVLGAIIGDWVDKNARLKVAQTSLVVQNVSVILCGIILMMVFLHKHELLTMYHGWVLTSCYILIITIANIANLASTATAITIQRDWIVVVAGEDRSKLANMNATIRRIDQLTNILAPMAVGQIMTFGSPVIGCGFISGWNLVSMCVEYVLLWKVYQKTPALAVKAGLKEEETELKQLNLHKDTEPKPLEGTHLMGVKDSNIHELEHEQEPTCASQMAEPFRTFRDGWVSYYNQPVFLAGMGLAFLYMTVLGFDCITTGYAYTQGLSGSILSILMGASAITGIMGTVAFTWLRRKCGLVRTGLISGLAQLSCLILCVISVFMPGSPLDLSVSPFEDIRSRFIQGESITPTKIPEITTEIYMSNGSNSANIVPETSPESVPIISVSLLFAGVIAARIGLWSFDLTVTQLLQENVIESERGIINGVQNSMNYLLDLLHFIMVILAPNPEAFGLLVLISVSFVAMGHIMYFRFAQNTLGNKLFACGPDAKEVRKENQANTSVV
B2: the binding result in assay [3] and in assay [4] was “binds” each time.

B3: wild-type ferroportin with C-terminal myc tag (C-myc-FPN), Q9NP59 1-571 (protein)
chain: MTRAGDHNRQRGCCGSLADYLTSAKFLLYLGHSLSTWGDRMWHFAVSVFLVELYGNSLLLTAVYGLVVAGSVLVLGAIIGDWVDKNARLKVAQTSLVVQNVSVILCGIILMMVFLHKHELLTMYHGWVLTSCYILIITIANIANLASTATAITIQRDWIVVVAGEDRSKLANMNATIRRIDQLTNILAPMAVGQIMTFGSPVIGCGFISGWNLVSMCVEYVLLWKVYQKTPALAVKAGLKEEETELKQLNLHKDTEPKPLEGTHLMGVKDSNIHELEHEQEPTCASQMAEPFRTFRDGWVSYYNQPVFLAGMGLAFLYMTVLGFDCITTGYAYTQGLSGSILSILMGASAITGIMGTVAFTWLRRKCGLVRTGLISGLAQLSCLILCVISVFMPGSPLDLSVSPFEDIRSRFIQGESITPTKIPEITTEIYMSNGSNSANIVPETSPESVPIISVSLLFAGVIAARIGLWSFDLTVTQLLQENVIESERGIINGVQNSMNYLLDLLHFIMVILAPNPEAFGLLVLISVSFVAMGHIMYFRFAQNTLGNKLFACGPDAKEVRKENQANTSVV
Turning to B3, the binding entry in assay [3] and in assay [4] was “binds” each time.

The values are drawn from paper PMC7201565.
